Reference: US6369098B1, “Dithiolane derivatives” (Bethesda Pharmaceuticals, Inc., priority 1999, dated 2002)
At least one compound was matched to its structure with a doubt left.

Test system: allograft rejection
Assay: Animal trial: experimental renal allograft transplantation, histological evaluation of rejection
Type: in vivo
Details: rat renal allograft; 10 mg/kg daily by gavage, 2 weeks pre-operatively and post-operatively; versus placebo

| Compound | Histological evidence of rejection |
| --- | --- |
| CCc1ccc(CCOc2ccc(CC3SC(=O)NC3=O)cc2)nc1 (centres unmarked) [pioglitazone] | reduced or prevented |
| CN(CCOc1ccc(CC2SC(=O)NC2=O)cc1)c1ccccn1 (centres unmarked) [rosiglitazone] | reduced or prevented |
